PubChem BioAssay AID1159584, Peter MacCallum Cancer Centre – 2016

Aim: 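Knock-downs that harm CDH1-null cells more than parental MCF10A cells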 (primary screen)
System: human MCF10A breast epithelial cells, parental and CDH1-null
Reagent: siRNA against human genes
Detection: 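ATP luminescence (CellTiter-Glo) viability per line relative to mean mock wells over all plates, and the ratio of CDH1-null to parental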
Reading the numbers: CDH1-null / parental viability ratio: higher = CDH1-null cells survive relatively better than parental
Here is an unselected part of about 18,000 deposited reagents. Further read-outs or replicates are left out here. Not given: the amount of reagent, the time to read-out.

no.	Target gene	PubChem SID	CDH1-null / parental viability ratio
1	TSPAN7	SID134324911	1.01
2	ZNF142	SID152149537	1.71
3	HMGA2	SID135622545	0.9
4	SLA	SID135622005	0.66
5	FBXL13	SID152147781	0.81
6	LDHC	SID152147129	1.05
7	SLC2A8	SID152147416	1.01
8	MLN	SID135622357	1.02
9	TENT5C	SID152156276	1.11
10	CFAP410	SID152151149	1.43
11	ORC6	SID56478630	0.92
12	NBN	SID135621812	0.93
13	DMTF1	SID134310116	0.93
14	IFTAP	SID134320560	0.73
15	MUSK	SID56478536	0.92
16	H3C7	SID134317362	1.25
17	FAM171A1	SID152152693	1.09
18	NDUFS8	SID134323378	0.97
19	KRT32	SID152147823	1.4
20	GFI1	SID152153211	0.87
21	ADAM33	SID134310506	1.33
22	ADD2	SID135621768	2.08
23	GBA1	SID152156489	0.93
24	CTSK	SID134311267	1.18
25	STIMATE	SID134326857	0.95
26	ST8SIA4	SID152151198	1.11
27	DDX1	SID134316299	1
28	CFAP251	SID135623013	0.96
29	LDLRAD4	SID152153340	0.73
30	RPL37	SID152154546	1.25
31	OR4F5	SID134329927	1.32
32	TRIM40	SID152155285	0.97
33	BOLA1	SID152150928	1.26
34	CCDC3	SID152147749	1.21
35	ARHGAP21	SID152156086	1.08
36	EFCAB13	SID135623502	0.58
37	ZNF439	SID152149286	0.93
38	GALNT9	SID135622450	0.69
39	CLDN17	SID134323740	1.37
40	NDUFS1	SID134322883	0.97
41	PDE3B	SID134312690	0.83
42	CDR2	SID152151564	0.91
43	CD164	SID134320198	1.02
44	TRMT10A	SID152152839	1.05
45	FAM220A	SID135622853	1.06
46	ZNF320	SID152150940	1.13
47	ENPP3	SID135620839	0.9
48	FEV	SID152156739	1.2
49	ZNF438	SID134323179	0.98
50	EFHD1	SID134315166	0.72
51	EYS	SID134326190	0.97
52	CD2AP	SID135622405	0.74
53	CCNB2	SID56478568	0.68
54	DGCR2	SID152151905	0.76
55	DCP1A	SID152156325	0.99
56	CCDC50	SID152146936	0.83
57	CELF5	SID152156492	1.14
58	YWHAE	SID135623306	0.94
59	SCFD1	SID134315320	0.94
60	ANKRD45	SID134326832	1.01
61	NDRG4	SID135622624	1.05
62	H4C11	SID135622128	0.92
63	PKNOX2	SID152148723	0.99
64	AGFG1	SID134316188	1.19
65	GPD2	SID152152999	1.13
66	ARHGAP12	SID152149324	0.77
67	OSGIN2	SID134313048	0.84
68	CLEC5A	SID152147805	0.81

5 entries from above, sorted by “CDH1-null / parental viability ratio”, highest first.
Target gene	PubChem SID	CDH1-null / parental viability ratio
ADD2	SID135621768	2.08
KRT32	SID152147823	1.4
ADAM33	SID134310506	1.33
GBA1	SID152156489	0.93
GFI1	SID152153211	0.87
